Microarray screen: hit calls

Targets, with sequences 5′ to 3′:
T1: PreQ1 riboswitch RNA pseudoknot, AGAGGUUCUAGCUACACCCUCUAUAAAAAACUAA. From B. subtilis. About 24,000 compounds screened, about 170 hits.
T2: TPP riboswitch RNA three-way junction, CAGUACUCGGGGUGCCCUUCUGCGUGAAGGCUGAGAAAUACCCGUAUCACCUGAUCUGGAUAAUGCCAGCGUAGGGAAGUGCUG. About 24,000 compounds screened, about 160 hits.
T3: SAM-II riboswitch RNA pseudoknot, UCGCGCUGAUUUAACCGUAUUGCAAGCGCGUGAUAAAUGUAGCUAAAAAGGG. About 21,000 compounds screened, about 200 hits.

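Compounds were printed on reactive glass slides in duplicate spots, a dye-labelled oligonucleotide was laid over them, and the fluorescence left after washing was read. For the PreQ1, TPP and SAM-II riboswitches the laboratory earlier reported (doi:10.1038/s41467-019-09493-3) 1 µM RNA, 2 h, and a rule that included a mean Z-score above 3 (spot signal-to-noise against the whole library), a score well above that on a control array, and duplicate spots agreeing (coefficient of variation under 100). The data file gives only the calls; its cut-offs may differ, and compounds hitting several targets are kept. The calls come from the array alone, and fixing a compound to the slide can hide its binding.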 A compound is marked Y if it was called a hit and N if it was screened but was not. This is an unselected part of the compounds tested. A dash means that no call is listed here.

structure | T1 | T2 | T3
NCC1Cc2cc(-c3ccc4occc4c3)cc(F)c2O1 (stereo unspecified) | Y | Y | Y
COc1ccc(C2CC(C(F)(F)F)n3ncc(C(=O)Nc4cccc(C(C)O)c4)c3N2)cc1OC (stereo unspecified) | N | N | N
COc1cccc(N2C(=O)C3C4c5ccccc5C(CO)(c5ccccc54)C3C2=O)c1 (stereo unspecified) | N | N | N
Cc1ccc2nc(-c3ccco3)c(Nc3ccccc3)n2c1 | N | N | N
Fc1ccc(-c2ccc(CNCCCn3ccnc3)o2)cc1Cl | N | N | -
CCCN1CC(NC2CCN(C(=O)c3ccccc3)CC2)CC1=O (stereo unspecified) | N | N | N
COc1ccc(C2CC(=O)Nc3nc(N)[se]c32)cc1O (stereo unspecified) | N | N | N
CCN(CC)CCNc1cc(C)nc2c(C)c(-c3ccc(OC)c(OC)c3)nn12 | N | N | -
CCC1(C)OC(=O)N(CCO)C1(C)O (stereo unspecified) | N | N | N
O=C(O)/C=C\C(=O)Nc1nccs1 | N | N | N
COc1nc(-c2ccc3c(c2)OCO3)n(-c2ccc(NC(=O)CSc3ccccc3)cc2)n1 | N | N | N
Cn1c(=O)n(C)c2cc(CNCc3ccc(C(=O)O)cc3)ccc21 | N | N | -
CS(=O)(=O)N1CCN(CC(O)Cn2c3ccccc3c3ccccc32)CC1 (stereo unspecified) | N | N | N
CCc1c(C)nc2nncn2c1Nc1ccc(Cl)cc1 | N | N | -
Cn1cc(C(=O)N2CC[C@H](N3CCOCC3)[C@H](CCCO)C2)cn1 | N | N | N
CCc1ccc(Nc2nc(-c3ccc(OC)c(OC)c3)no2)cc1 | N | N | -
CC(C)(N)c1cn([C@@H]2c3ccccc3C3(CCNCC3)[C@H]2O)nn1 | N | N | N
CSC(C)CCN1CCC2(CC1)NCCNC2=O (stereo unspecified) | N | N | N
O=C(O)CCCNc1nc(Cl)nc(N2CCOCC2)n1 | N | N | N
c1ccc(Nc2ncnc3sc4c(c23)CCCC4)cc1 | N | N | N
O=C(CCNCC1(c2cccc(F)c2)CCOCC1)Nc1cccnc1 | N | N | N
COc1ccc(CN2C(=O)C(CCO)Oc3ccccc32)cc1OC (stereo unspecified) | N | N | N
COc1ccc2nc(Nc3nccc(C)n3)nc(C)c2c1 | N | N | N
CCN1CCc2[nH]cnc2C12CCN(C(=O)[C@H]1Cc3ccccc3CN1)CC2 | N | N | N
Cn1c(S)nnc1C(O)c1ccccc1 (stereo unspecified) | N | N | N
CCC(C)Nc1cc(C(C)C)c(C#N)c2nc3ccccc3n12 (stereo unspecified) | N | N | N
Cc1cc(C)n(CCc2nc3c4ccccc4nc(NC4CCN(Cc5ccccc5)CC4)n3n2)n1 | N | N | -
N[C@H]1CN(C(=O)CCn2c(=O)[nH]c3ccccc32)C[C@@H]1c1ccccc1 | N | N | N
COc1ccc(-c2[nH]c3c(C#N)cnn3c2NC2CCCC2)c(OC)c1 | N | N | -
CCOc1ccc(NC(=O)CC(=O)N2CCOC3(CNCCOC3)C2)cc1 (stereo unspecified) | N | N | N
CN(CC(O)CO)C(=O)Nc1ccc(SCc2ccco2)cc1 (stereo unspecified) | N | N | N
O=C(COc1ccc(-n2cncn2)cc1)N1CCN[C@H]2CS(=O)(=O)C[C@H]21 | N | N | N
Cc1cc(C)cc(OCC(O)Cn2c(C)nc3ccccc32)c1 (stereo unspecified) | N | N | -
Cc1c(-c2nncn2C)cccc1-n1ccnc1-c1cc2n(n1)CCNC2 | N | N | N
C[C@]1(O)CCN(Cc2ccc3c4c(cccc24)C(=O)OC3)C[C@@H]1O | N | N | N
CC[C@]12C=CCN3CC[C@@]4(c5cc([C@@]6(C(=O)OC)C[C@H]7C[C@@H](C(C)(F)F)CN(Cc8c6[nH]c6ccccc86)C7)c(OC)cc5N(C)[C@H]4[C@@](O)(C(=O)OC)[C@H]1OC(C)=O)[C@@H]32 | N | N | N
Nc1sc2c(c1C(=O)NC1CCCCC1)CCCC2 | N | N | N
Cn1ncc2c(N3[C@H]4CCNC[C@@H]3CC4)nc(C3CCCC3)nc21 | N | N | N
N[C@@H](Cc1c[nH]c2ccc(O)cc12)C(=O)O | N | N | N
COc1ccc2[nH]c(C(=O)NCc3c(C)ncc4c3CCNC4)cc2c1 | N | N | N
CCOc1ccccc1-n1nnc(-c2nc(-c3ccccc3)no2)c1N | N | N | -
CC(C)N[C@@H]1CC[C@@H]1NC(=O)c1cccc(N2CCS(=O)(=O)CC2)c1 | N | N | N
Cc1ccn2c(=O)cc(CN3CCC4(CC3)OCCCC4O)nc2c1 (stereo unspecified) | N | N | N

The first 5 entries again:

structure	T1	T2	T3
NCC1Cc2cc(-c3ccc4occc4c3)cc(F)c2O1 (stereo unspecified)	Y	Y	Y
COc1ccc(C2CC(C(F)(F)F)n3ncc(C(=O)Nc4cccc(C(C)O)c4)c3N2)cc1OC (stereo unspecified)	N	N	N
COc1cccc(N2C(=O)C3C4c5ccccc5C(CO)(c5ccccc54)C3C2=O)c1 (stereo unspecified)	N	N	N
Cc1ccc2nc(-c3ccco3)c(Nc3ccccc3)n2c1	N	N	N
Fc1ccc(-c2ccc(CNCCCn3ccnc3)o2)cc1Cl	N	N	-

Calls as published in the ROBIN set (doi:10.1002/anie.202211358).